Some of the results follow.

Chains of the proteins cited; added tags and fusions are not shown.
UniProt Q0JBA9, entry or part of it: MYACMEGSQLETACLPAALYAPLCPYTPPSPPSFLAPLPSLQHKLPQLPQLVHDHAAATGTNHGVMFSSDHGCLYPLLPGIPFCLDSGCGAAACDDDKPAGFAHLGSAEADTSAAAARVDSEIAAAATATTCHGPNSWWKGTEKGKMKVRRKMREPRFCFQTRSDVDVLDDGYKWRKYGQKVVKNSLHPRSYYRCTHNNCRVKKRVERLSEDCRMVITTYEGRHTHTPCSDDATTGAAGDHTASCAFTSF

The assay concerns the target OsWRKY34 (Oryza sativa, UniProt Q0JBA9 1-250). Description: protein-binding microarray (RPBM); PBS, 2% BSA, 51.3 ng/ul salmon testes DNA, 50 uM zinc acetate, 200 nM TF, 25 C, 1 h; high values mean tight binding. Conditions: protein: recombinant; tags: N-terminal polyhistidine and DsRed monomer fusion (pET32a); label: CyDye5-dUTP incorporated in the synthesized complementary strand; 3' TTTTT single-stranded linker to array surface; dsDNA, one strand shown. In outline:
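Binding signal is defined as the fluorescence intensity of each feature in arbitrary units, read on an Axon 4000B scanner. Transcription factors with N-terminal polyhistidine and DsRed fusions came from E. coli BL21-CodonPlus and were purified on Ni–NTA. They were incubated at 200 nM for 1 h at 25 °C on a custom Agilent array that had been made double-stranded with Cy5-dUTP, with 50 µM zinc acetate present, and the array was washed.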
Take “CGTCTGTTCTTATCACCTTCTTGCTCCGGTACCTAGCCAACGGAGTCACCTAGTGCAG”: the binding signal was 8780 fluorescence intensity (a.u.). Turning to “CTCTGCGGCGGCGGCGGCTGCGAGGTTTTTCTCTCTCTTCCGGAGTCACCTAGTGCAG”, the binding signal was 11600 fluorescence intensity (a.u.). As for “GGAGGTGGGGATGGTGGGAGGTTTTGGTTTGGTAAAATAGCGGAGTCACCTAGTGCAG”, the binding signal was 19800 fluorescence intensity (a.u.). Then “TGTTTGATTATGTTCAATCATTGCAAATCATGTCATCTGTCGGAGTCACCTAGTGCAG”, with 9230 fluorescence intensity (a.u.); and “ACCTACATATCACTAAGTAATCAACTGTATTAGTGACTTACGGAGTCACCTAGTGCAG”, with 8110 fluorescence intensity (a.u.); and “CTCAACCCCACCCTCCTTATACCGAGAAGACTTTTTCTTCCGGAGTCACCTAGTGCAG”, with 8160 fluorescence intensity (a.u.). The value for “TGGTCATAGAAGATCCAAAGGGATCGGCGTTTTTTTCTCCCGGAGTCACCTAGTGCAG” was 8560 fluorescence intensity (a.u.).

For “CAACTCCAACCCAATTACAAACCCAAACTCGCTTCGCTTTCGGAGTCACCTAGTGCAG”, the binding signal is 8240 fluorescence intensity (a.u.). The value for “GGATGGTGCAGTTCATAGTTTCATACCTTTGGTTTTTGGTCGGAGTCACCTAGTGCAG” was 9950 fluorescence intensity (a.u.); that for “GAAGCTGTCTTGCATGAGACCCAATTTCTTTCTCTCTTCACGGAGTCACCTAGTGCAG” was 8340 fluorescence intensity (a.u.); that for “CCAACCAAGCCCGCCATTGTCTCGTCGCAATGGCGGCGTCCGGAGTCACCTAGTGCAG” was 9750 fluorescence intensity (a.u.). Then “ATCTTCTATTTTTTTGTTGTTGAGATATATATGATCACGTCGGAGTCACCTAGTGCAG”, with 11600 fluorescence intensity (a.u.). Then “AATCCTGCATAACGGTTTTTTTTCTTTTCAGACGATGACGCGGAGTCACCTAGTGCAG”, with 10700 fluorescence intensity (a.u.).

With “ACACCTTTACCAATTCGTTTTTATCTACCTTGTGATATGTCGGAGTCACCTAGTGCAG”, the binding signal was 8260 fluorescence intensity (a.u.). Consider “GCACAAGTAGTCTATTATGGCGTTTTATTTTATTTTGTTACGGAGTCACCTAGTGCAG”, for which the binding signal is 9790 fluorescence intensity (a.u.).

For the sequence “CTGCTCCTGAGGGGTAGGGAGGGAGGGGAAGGAGCACGTTCGGAGTCACCTAGTGCAG”, the binding signal was 13200 fluorescence intensity (a.u.).

With “GTTGCATTCCATTAGTGCTTCTCTCTGAATCTTTTGTTTTCGGAGTCACCTAGTGCAG”, the binding signal was 9570 fluorescence intensity (a.u.). The value for “GGAGAAAAAGGGGAGGGAGGGAGATGATGACGTGTAGGGGCGGAGTCACCTAGTGCAG” was 8550 fluorescence intensity (a.u.); that for “GATCTGAACTTGGAACGGGCTCCATCTCTTATTTGCAACGCGGAGTCACCTAGTGCAG” was 8670 fluorescence intensity (a.u.); that for “GATTTGGGGATTTGGGGTTTGATTTAGGATGTGCATGCCACGGAGTCACCTAGTGCAG” was 21400 fluorescence intensity (a.u.). Take “GTCCGCCGTATCGGCGTTTACCGTTTCTTCTTTGCCATGTCGGAGTCACCTAGTGCAG”: the binding signal was 8140 fluorescence intensity (a.u.). As to “TAATTCCTCGCACAGTAATCTGTCTTCCACTTCACCTGCTCGGAGTCACCTAGTGCAG”, the binding signal is 12100 fluorescence intensity (a.u.). The value for “ACAAATGGTCAAACGTTGATAAAAAAGTCAACGGCGTCATCGGAGTCACCTAGTGCAG” was 20600 fluorescence intensity (a.u.); that for “GTAAAGGTTTGGTAGGGGAGCAGGTAATGGATTGATTGCACGGAGTCACCTAGTGCAG” was 12100 fluorescence intensity (a.u.); that for “TGTTTATTTCGTTTTCCGCGCGCACGTTTCCCAAACTATTCGGAGTCACCTAGTGCAG” was 12500 fluorescence intensity (a.u.). The value for “TGCATAACCATTTTTTTTCTCTAACGGCTTACAAGTTCTACGGAGTCACCTAGTGCAG” was 8230 fluorescence intensity (a.u.); that for “GGTTGGTGTGGACCTTGCCCATTGTGAAACTTTGGTCAAACGGAGTCACCTAGTGCAG” was 8070 fluorescence intensity (a.u.); that for “TGTTGGTTACTGGGCTTTCTTATTGATGTTTCAGGTTGATCGGAGTCACCTAGTGCAG” was 9150 fluorescence intensity (a.u.). As to “TTCGAAATGTTTAACGCCGTTGACTTTTTATCATATGTTTCGGAGTCACCTAGTGCAG”, the binding signal is 35500 fluorescence intensity (a.u.). Then “CTAACAGAACATCCATTTCACCACACCCACTTGTTCAATGCGGAGTCACCTAGTGCAG”, with 11000 fluorescence intensity (a.u.). Then “TAAGTTGGAGGGTGCGTTCTATCCGGTCTTGTGGTCAACACGGAGTCACCTAGTGCAG”, with 8040 fluorescence intensity (a.u.); and “TTCTTCTCTGGTCTCCCCTGTGTGTTGCTGTTCTATTTCCCGGAGTCACCTAGTGCAG”, with 9230 fluorescence intensity (a.u.); and “ATTATGACTGGTTTTGGTTAGTTGGGTGACGCCGGATATCCGGAGTCACCTAGTGCAG”, with 10600 fluorescence intensity (a.u.). Then “GCATCTCCATCTATATGCTCTATTTCAAGTCTATCACAATCGGAGTCACCTAGTGCAG”, with 8660 fluorescence intensity (a.u.). Consider “ATCTGTCATCCTTTCTTCCCTCTTGCTTTGATAGAAACAGCGGAGTCACCTAGTGCAG”, for which the binding signal is 11600 fluorescence intensity (a.u.).

As to “TGTTCCTCGCGATTGCATTTTGGTTCCTTGTTCATATATGCGGAGTCACCTAGTGCAG”, the binding signal is 10700 fluorescence intensity (a.u.). The value for “TCTCTCTTCTCTTGAGCATCCTTGTTGTGTTCTACACTTGCGGAGTCACCTAGTGCAG” was 8040 fluorescence intensity (a.u.); that for “CCCAACTTTCCCCTTTGCTACAGTAGCTCCTTCTTCTTCTCGGAGTCACCTAGTGCAG” was 11100 fluorescence intensity (a.u.).

Regarding “GTCCGTGTGTTGGAGCAGTCGGTGCGTGGGTGGTGGTCTTCGGAGTCACCTAGTGCAG”, the binding signal is 10500 fluorescence intensity (a.u.).

Consider “AATTCGTATTTTTTTCCTTAACTCAATGTTACTACTACTTCGGAGTCACCTAGTGCAG”, for which the binding signal was 8750 fluorescence intensity (a.u.).

As to “TGTGAGATCAGGGACTCTTTTACCATTTCTTTCTTGCTTTCGGAGTCACCTAGTGCAG”, the binding signal was 12600 fluorescence intensity (a.u.). The value for “GACTTCTCTTCATCGTCCGCCTCCTCCGCCGATCACCGCGCGGAGTCACCTAGTGCAG” was 10900 fluorescence intensity (a.u.).

The values above are taken from article PMC7819943, “Rice protein-binding microarrays: a tool to detect cis-acting elements near promoter regions in rice”.
